Values from PubChem BioAssay AID1259405 (NCATS, 2018)
The deposit covers about 50,000 reagents; below is a random part of them. About 4,000 of them (8%) were called active. 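Mouse siRNA library applied to hamster cells; one well for each siRNA.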 Entries without a mark were called inactive. Reagents against one gene are numbered here.

Screen: 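Silenced genes that increase secreted GFP made by CHO cells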 (primary screen)
Cells: Chinese hamster CHO-K1 ovary cells with stable secreted eGFP expression
Reagents: single siRNA against mouse genes, 0.8 pmol siRNA per well (2 µl of 400 nM stock)
Duration: 3 days
Read-out: 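Per-well intracellular GFP measured by laser scanning cytometry, plus viability from ATP luminescence, each relative to plate median of non-targeting control wells, in %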
Direction: GFP, % of control: higher = more GFP per well, higher productivity; viability (ATP), % of control: higher = more viable cells (more ATP)
Active means: 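Called active when intracellular GFP, relative to negative control, is at or above 120%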

gene symbol,siRNA no.,"GFP, % of control","viability (ATP), % of control"
Trp53bp2 (transformation related protein 53 binding protein 2),1,77.3,81.5
Trp53bp2 (transformation related protein 53 binding protein 2),2,139 (active),78.9
Trp53bp2 (transformation related protein 53 binding protein 2),3,160 (active),51.7
Eps15l1 (EGFR pathway substrate 15-like 1),1,141 (active),109
Eps15l1 (EGFR pathway substrate 15-like 1),2,83.2,95.8
Eps15l1 (EGFR pathway substrate 15-like 1),3,74.3,80.6
"Cpa1 (carboxypeptidase A1, pancreatic)",1,176 (active),95.2
"Cpa1 (carboxypeptidase A1, pancreatic)",2,62.6,47.1
"Cpa1 (carboxypeptidase A1, pancreatic)",3,70.2,73.3
Ces2b (carboxyesterase 2B),1,125 (active),104
Ces2b (carboxyesterase 2B),2,80.6,97.2
Ces2b (carboxyesterase 2B),3,66,74.5
Prmt3 (protein arginine N-methyltransferase 3),1,81.3,66.7
Prmt3 (protein arginine N-methyltransferase 3),2,99.6,111
Prmt3 (protein arginine N-methyltransferase 3),3,106,97.2
Gadd45g (growth arrest and DNA-damage-inducible 45 gamma),1,100,98.3
Gadd45g (growth arrest and DNA-damage-inducible 45 gamma),2,76.7,60.5
Gadd45g (growth arrest and DNA-damage-inducible 45 gamma),3,113,72.2
Defb20 (defensin beta 20),1,95.7,97.4
Defb20 (defensin beta 20),2,60,49.7
Defb20 (defensin beta 20),3,44.4,54.4
Creg1 (cellular repressor of E1A-stimulated genes 1),1,73,90
Creg1 (cellular repressor of E1A-stimulated genes 1),2,71.6,101
Creg1 (cellular repressor of E1A-stimulated genes 1),3,63.7,62.7
Lyar (Ly1 antibody reactive clone),1,88.7,73.2
Lyar (Ly1 antibody reactive clone),2,113,114
Lyar (Ly1 antibody reactive clone),3,158 (active),68.8
Irf2 (interferon regulatory factor 2),1,65.1,63.1
Irf2 (interferon regulatory factor 2),2,85,88.6
Irf2 (interferon regulatory factor 2),3,75.6,98.9
Adgrb1 (adhesion G protein-coupled receptor B1),1,129 (active),84.9
Adgrb1 (adhesion G protein-coupled receptor B1),2,79.3,68.1
Adgrb1 (adhesion G protein-coupled receptor B1),3,65.2,59.9
"Amelx (amelogenin, X-linked)",1,137 (active),85.3
"Amelx (amelogenin, X-linked)",2,36.9,22.4
"Amelx (amelogenin, X-linked)",3,54.1,62.4
Or3a1 (olfactory receptor family 3 subfamily A member 1),1,36.8,19.1
Or3a1 (olfactory receptor family 3 subfamily A member 1),2,109,80.8
Or3a1 (olfactory receptor family 3 subfamily A member 1),3,79.8,75
"Ppp1r16a (protein phosphatase 1, regulatory subunit 16A)",1,75.5,68.1
"Ppp1r16a (protein phosphatase 1, regulatory subunit 16A)",2,36.3,23.4
"Ppp1r16a (protein phosphatase 1, regulatory subunit 16A)",3,82.6,96
"Gria2 (glutamate receptor, ionotropic, AMPA2 (alpha 2))",1,97.6,84.3
"Gria2 (glutamate receptor, ionotropic, AMPA2 (alpha 2))",2,32.8,42.4
"Gria2 (glutamate receptor, ionotropic, AMPA2 (alpha 2))",3,46,61.3
Cyb5r2 (cytochrome b5 reductase 2),1,78.5,73.2
Cyb5r2 (cytochrome b5 reductase 2),2,68,87.8
Cyb5r2 (cytochrome b5 reductase 2),3,101,63.7
Atp13a1 (ATPase type 13A1),1,84.1,105
Atp13a1 (ATPase type 13A1),2,78.2,96.3
Atp13a1 (ATPase type 13A1),3,123 (active),94.8
Usp53 (ubiquitin specific peptidase 53),1,87.9,70
Usp53 (ubiquitin specific peptidase 53),2,67.4,67
Usp53 (ubiquitin specific peptidase 53),3,16.2,37.8
Ndufb5 (NADH:ubiquinone oxidoreductase subunit B5),1,93,66.9
Ndufb5 (NADH:ubiquinone oxidoreductase subunit B5),2,98.2,96.6
Ndufb5 (NADH:ubiquinone oxidoreductase subunit B5),3,55.9,77.2
Nap1l3 (nucleosome assembly protein 1-like 3),1,158 (active),62
Nap1l3 (nucleosome assembly protein 1-like 3),2,60.2,72.9
Nap1l3 (nucleosome assembly protein 1-like 3),3,53.4,45.4
Atxn3 (ataxin 3),1,85.7,80.6
Atxn3 (ataxin 3),2,71.3,92.5
Atxn3 (ataxin 3),3,66.1,84.8
Mis18a (MIS18 kinetochore protein A),1,91.3,68.7
Mis18a (MIS18 kinetochore protein A),2,32.4,33.1
Mis18a (MIS18 kinetochore protein A),3,85.5,73.1
Cwf19l2 (CWF19 like cell cycle control factor 2),1,67.8,94.2
Cwf19l2 (CWF19 like cell cycle control factor 2),2,73,63
Cwf19l2 (CWF19 like cell cycle control factor 2),3,100,110
Ufd1 (ubiquitin recognition factor in ER-associated degradation 1),1,16.5,12.5
Ufd1 (ubiquitin recognition factor in ER-associated degradation 1),2,115,87.6
Ufd1 (ubiquitin recognition factor in ER-associated degradation 1),3,95.9,84.6
Adam22 (a disintegrin and metallopeptidase domain 22),1,29.9,20
Adam22 (a disintegrin and metallopeptidase domain 22),2,71.5,35.4
Adam22 (a disintegrin and metallopeptidase domain 22),3,81.2,89.2
Zp2 (zona pellucida glycoprotein 2),1,75.6,47
Zp2 (zona pellucida glycoprotein 2),2,38.1,57.1
Zp2 (zona pellucida glycoprotein 2),3,66.4,62.9
Zfp30 (zinc finger protein 30),1,59.1,72.3
Zfp30 (zinc finger protein 30),2,67.2,75.3
Zfp30 (zinc finger protein 30),3,127 (active),57
Rin1 (Ras and Rab interactor 1),1,89.5,97.3
Rin1 (Ras and Rab interactor 1),2,73.2,76.2
Rin1 (Ras and Rab interactor 1),3,117,75.7

13 entries already listed, arranged by “viability (ATP), % of control”, descending.
gene symbol,siRNA no.,"GFP, % of control","viability (ATP), % of control"
Ndufb5 (NADH:ubiquinone oxidoreductase subunit B5),2,98.2,96.6
Atp13a1 (ATPase type 13A1),2,78.2,96.3
Atp13a1 (ATPase type 13A1),3,123 (active),94.8
Atxn3 (ataxin 3),2,71.3,92.5
Atxn3 (ataxin 3),1,85.7,80.6
Ndufb5 (NADH:ubiquinone oxidoreductase subunit B5),3,55.9,77.2
Nap1l3 (nucleosome assembly protein 1-like 3),2,60.2,72.9
Usp53 (ubiquitin specific peptidase 53),1,87.9,70
Usp53 (ubiquitin specific peptidase 53),2,67.4,67
Ndufb5 (NADH:ubiquinone oxidoreductase subunit B5),1,93,66.9
Nap1l3 (nucleosome assembly protein 1-like 3),1,158 (active),62
Nap1l3 (nucleosome assembly protein 1-like 3),3,53.4,45.4
Usp53 (ubiquitin specific peptidase 53),3,16.2,37.8
